Experimental findings from patent publication US20190127366A1 (LifeSci Pharmaceuticals, Inc., priority 2015, published 2019) are described below.

Protein sequences, listed by entry. Tags and fused reporters are not part of them. Residues count along the entry.
UniProt P00746, 26-253 limits assumed: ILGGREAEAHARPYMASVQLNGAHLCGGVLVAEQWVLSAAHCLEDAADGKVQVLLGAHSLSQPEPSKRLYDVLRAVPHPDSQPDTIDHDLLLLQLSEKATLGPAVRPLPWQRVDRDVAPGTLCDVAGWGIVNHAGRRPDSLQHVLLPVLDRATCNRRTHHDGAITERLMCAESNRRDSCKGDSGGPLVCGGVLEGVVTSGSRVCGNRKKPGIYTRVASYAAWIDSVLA

pIC50: −log10 of the molar value. The match of structure and compound is tentative.

The experiment concerns the target human complement factor D (Homo sapiens, UniProt P00746). The experiment is described as follows: In vitro enzyme inhibition (Z-Lys-SBzl/DTNB absorbance assay). Conditions: read-out: CFD IC50; Complement Factor D (R&D Systems), substrate Z-Lys-SBzl, A405 nm. The method, then: The ability of the compounds disclosed herein to inhibit human complement factor D inhibitory activity was quantified according to the 12-step protocol provided below. • 1. Prepare assay buffer: 50 mM Tris/HCl, pH 7.5, 1 M NaCl. • 2. Dilute 10 mM Complement Factor D inhibitor Nafamostat Mesilate (Selleckchem, Catalog #S1386) solution from 10000 μM to 9.77 μM in 100% DMSO, 8 concentrations. Then dilute the serial concentrations of Nafamostat Mesilate 20-fold in assay buffer. • 3. Add 10 μl diluted Nafamostat Mesilate duplicated into each of the inhibitor control well of a 96-well plate (Corning, Catalog #3599). Final concentrations were 50 μM, 25 μM, 12.5 μM, 6.25 μM, 3.125 μM, 0.781 μM, 0.195 μM and 0.049 μM. 0.5% DMSO was in each well finally. • 4. Dilute 20 mM test compounds from 10000 μM to […] in 100% DMSO, 6-fold dilution, 8 concentrations. […] For kinetic reading: Immediately start measuring absorbance (A405 nm) continuously and record data every 30sec for 60 min. • 12. Data analysis • Inhibition activity of compound was evaluated by IC50. IC50 was calculated according the dose-response curve of compound fitted using GraphPadPrism with “log(inhibitor)-response (variable slope)” equation. • % inhibition was calculated by using following equation: […]
The ability of the compounds in Table 2 to inhibit human complement factor D inhibitory activity was determined.

One may read the pIC50 as −log10 of the IC50, conventionally taken in molar units. Consider `CC(=O)c1nn(CC(=O)N2[C@H](C(=O)Nc3cccc(Cl)n3)C[C@@H]3CCC[C@@H]32)c2ccc(Br)cc12`, for which the pIC50 was 5.00 to 6.00.
